These are yes or no findings as the source states them, for the method shown. Binding seen in cells or lysates may run through a third protein. These calls come from enrichment with a bait or labelling near it, and not all partners need be listed.

Amino acid sequences for entries named in this document (tags omitted).
UniProt Q5VSL9: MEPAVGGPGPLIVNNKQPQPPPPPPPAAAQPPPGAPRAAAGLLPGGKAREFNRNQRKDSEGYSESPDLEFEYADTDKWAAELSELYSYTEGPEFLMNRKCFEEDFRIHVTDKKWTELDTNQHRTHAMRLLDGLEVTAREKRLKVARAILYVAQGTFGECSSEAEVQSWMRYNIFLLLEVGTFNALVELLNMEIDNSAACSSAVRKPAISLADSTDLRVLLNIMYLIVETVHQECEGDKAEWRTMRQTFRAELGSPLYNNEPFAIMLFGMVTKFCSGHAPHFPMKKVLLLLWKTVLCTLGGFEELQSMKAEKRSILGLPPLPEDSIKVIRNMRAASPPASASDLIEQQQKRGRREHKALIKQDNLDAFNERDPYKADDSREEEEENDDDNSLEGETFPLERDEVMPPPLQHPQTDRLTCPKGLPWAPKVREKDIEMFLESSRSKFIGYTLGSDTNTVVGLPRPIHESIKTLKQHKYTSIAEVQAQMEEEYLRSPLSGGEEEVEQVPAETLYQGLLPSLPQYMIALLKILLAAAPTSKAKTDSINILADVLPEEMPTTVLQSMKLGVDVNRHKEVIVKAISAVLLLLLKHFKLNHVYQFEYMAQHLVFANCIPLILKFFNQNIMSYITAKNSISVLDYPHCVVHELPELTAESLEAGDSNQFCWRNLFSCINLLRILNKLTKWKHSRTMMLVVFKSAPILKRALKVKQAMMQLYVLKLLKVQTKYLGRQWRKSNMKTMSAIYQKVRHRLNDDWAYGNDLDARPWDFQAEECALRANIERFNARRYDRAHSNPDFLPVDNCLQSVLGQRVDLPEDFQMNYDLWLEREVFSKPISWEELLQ

One experiment addresses T1, MST2 BioID bait (UniProt Q13188).
T1 sequence: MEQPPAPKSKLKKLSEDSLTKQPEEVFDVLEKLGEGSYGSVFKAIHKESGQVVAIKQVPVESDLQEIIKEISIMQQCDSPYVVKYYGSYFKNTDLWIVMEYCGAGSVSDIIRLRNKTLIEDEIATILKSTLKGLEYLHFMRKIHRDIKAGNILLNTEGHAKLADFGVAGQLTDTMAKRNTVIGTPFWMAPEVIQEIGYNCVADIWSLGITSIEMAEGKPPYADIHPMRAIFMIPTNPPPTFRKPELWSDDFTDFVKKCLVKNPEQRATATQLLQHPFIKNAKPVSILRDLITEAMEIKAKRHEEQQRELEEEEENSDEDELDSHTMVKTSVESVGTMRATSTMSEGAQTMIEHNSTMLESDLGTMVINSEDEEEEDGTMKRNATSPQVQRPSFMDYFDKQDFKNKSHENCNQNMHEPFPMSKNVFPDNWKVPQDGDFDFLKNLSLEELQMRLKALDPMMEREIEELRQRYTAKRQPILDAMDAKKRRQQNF
The experiment in a line: proximity labelling; BioID with mass spectrometry; 293A cells transiently transfected for 24 hours, DMSO or etoposide (1 h), harvested at an early (2 h) or late (18 h) stage.

A further experiment deals with T2, SIKE1 BioID bait, Q9BRV8.
T2 chain: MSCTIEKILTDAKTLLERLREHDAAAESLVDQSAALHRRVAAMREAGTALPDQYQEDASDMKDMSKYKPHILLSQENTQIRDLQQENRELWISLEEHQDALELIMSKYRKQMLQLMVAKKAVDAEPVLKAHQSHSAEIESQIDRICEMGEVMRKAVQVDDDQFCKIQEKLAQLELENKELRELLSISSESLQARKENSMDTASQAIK
The description is as above. Particulars: remark: other sources report otherwise.

In the case of “striatin-interacting protein 1 (STRIP1) (from UniProt Q5VSL9 1-837)”, in the experiment with MST2 BioID bait, the binding result was “binds”.

B1: mammalian STE20-like protein kinase 2 (MST2), Q13188 1-491 (protein)
chain: MEQPPAPKSKLKKLSEDSLTKQPEEVFDVLEKLGEGSYGSVFKAIHKESGQVVAIKQVPVESDLQEIIKEISIMQQCDSPYVVKYYGSYFKNTDLWIVMEYCGAGSVSDIIRLRNKTLIEDEIATILKSTLKGLEYLHFMRKIHRDIKAGNILLNTEGHAKLADFGVAGQLTDTMAKRNTVIGTPFWMAPEVIQEIGYNCVADIWSLGITSIEMAEGKPPYADIHPMRAIFMIPTNPPPTFRKPELWSDDFTDFVKKCLVKNPEQRATATQLLQHPFIKNAKPVSILRDLITEAMEIKAKRHEEQQRELEEEEENSDEDELDSHTMVKTSVESVGTMRATSTMSEGAQTMIEHNSTMLESDLGTMVINSEDEEEEDGTMKRNATSPQVQRPSFMDYFDKQDFKNKSHENCNQNMHEPFPMSKNVFPDNWKVPQDGDFDFLKNLSLEELQMRLKALDPMMEREIEELRQRYTAKRQPILDAMDAKKRRQQNF
For B1, the binding result with SIKE1 BioID bait, Q9BRV8 was “binds”.

B2: STRN3 (protein, UniProt Q13033 1-797)
chain: MDELAGGGGGGPGMAAPPRQQQGPGGNLGLSPGGNGAAGGGGPPASEGAGPAAGPELSRPQQYTIPGILHYIQHEWARFEMERAHWEVERAELQARIAFLQGERKGQENLKKDLVRRIKMLEYALKQERAKYHKLKYGTELNQGDLKMPTFESEETKDTEAPTAPQNSQLTWKQGRQLLRQYLQEVGYTDTILDVRSQRVRSLLGLSNSEPNGSVETKNLEQILNGGESPKQKGQEIKRSSGDVLETFNFLENADDSDEDEENDMIEGIPEGKDKHRMNKHKIGNEGLAADLTDDPDTEEALKEFDFLVTAEDGEGAGEARSSGDGTEWDKDDLSPTAEVWDVDQGLISKLKEQYKKERKGKKGVKRANRTKLYDMIADLGDDELPHIPSGIINQSRSASTRMTDHEGARAEEAEPITFPSGGGKSFIMGSDDVLLSVLGLGDLADLTVTNDADYSYDLPANKDAFRKTWNPKYTLRSHFDGVRALAFHPVEPVLVTASEDHTLKLWNLQKTVPAKKSASLDVEPIYTFRAHIGPVLSLAISSNGEQCFSGGIDATIQWWNMPSPSVDPYDTYEPNVLAGTLVGHTDAVWGLAYSGIKNQLLSCSADGTVRLWNPQEKLPCICTYNGDKKHGIPTSVDFIGCDPAHMVTSFNTGSAVIYDLETSQSLVILSSQVDSGLQSNNHINRVVSHPTLPVTITAHEDRHIKFFDNKTGKMIHSMVAHLDAVTSLAVDPNGIYLMSGSHDCSIRLWNLDSKTCVQEITAHRKKLDESIYDVAFHSSKAYIASAGADALAKVFV
On to B2, for which the binding result with MST2 BioID bait is reported as “binds”.

B3: sarcolemma membrane–associated protein (SLMAP) (protein, UniProt Q14BN4 1-828)
chain: MPSALAIFTCRPNSHPFQERHVYLDEPIKIGRSVARCRPAQNNATFDCKVLSRNHALVWFDHKTGKFYLQDTKSSNGTFINSQRLSRGSEESPPCEILSGDIIQFGVDVTENTRKVTHGCIVSTIKLFLPDGMEARLRSDVIHAPLPSPVDKVAANTPSMYSQELFQLSQYLQEALHREQMLEQKLATLQRLLAITQEASDTSWQALIDEDRLLSRLEVMGNQLQACSKNQTEDSLRKELIALQEDKHNYETTAKESLRRVLQEKIEVVRKLSEVERSLSNTEDECTHLKEMNERTQEELRELANKYNGAVNEIKDLSDKLKVAEGKQEEIQQKGQAEKKELQHKIDEMEEKEQELQAKIEALQADNDFTNERLTALQVRLEHLQEKTLKECSSLEHLLSKSGGDCTFIHQFIECQKKLIVEGHLTKAVEETKLSKENQTRAKESDFSDTLSPSKEKSSDDTTDAQMDEQDLNEPLAKVSLLKDDLQGAQSEIEAKQEIQHLRKELIEAQELARTSKQKCFELQALLEEERKAYRNQVEESTKQIQVLQAQLQRLHIDTENLREEKDSEITSTRDELLSARDEILLLHQAAAKVASERDTDIASLQEELKKVRAELERWRKAASEYEKEITSLQNSFQLRCQQCEDQQREEATRLQGELEKLRKEWNALETECHSLKRENVLLSSELQRQEKELHNSQKQSLELTSDLSILQMSRKELENQVGSLKEQHLRDSADLKTLLSKAENQAKDVQKEYEKTQTVLSELKLKFEMTEQEKQSITDELKQCKNNLKLLREKGNNKPWPWMPMLAALVAVTAIVLYVPGLARASP
On to B3, for which the binding entry in the experiment with MST2 BioID bait is given as “binds”.

B4: STRN4 (protein, UniProt Q9NRL3 1-753)
chain: MMEERAAAAVAAAASSCRPLGSGAGPGPTGAAPVSAPAPGPGPAGKGGGGGGSPGPTAGPEPLSLPGILHFIQHEWARFEAEKARWEAERAELQAQVAFLQGERKGQENLKTDLVRRIKMLEYALKQERAKYHKLKFGTDLNQGEKKADVSEQVSNGPVESVTLENSPLVWKEGRQLLRQYLEEVGYTDTILDMRSKRVRSLLGRSLELNGAVEPSEGAPRAPPGPAGLSGGESLLVKQIEEQIKRNAAGKDGKERLGGSVLGQIPFLQNCEDEDSDEDDELDSVQHKKQRVKLPSKALVPEMEDEDEEDDSEDAINEFDFLGSGEDGEGAPDPRRCTVDGSPHELESRRVKLQGILADLRDVDGLPPKVTGPPPGTPQPRPHEDVFIMDTIGGGEVSLGDLADLTVTNDNDLSCDLSDSKDAFKKTWNPKFTLRSHYDGIRSLAFHHSQSALLTASEDGTLKLWNLQKAVTAKKNAALDVEPIHAFRAHRGPVLAVAMGSNSEYCYSGGADACIHSWKIPDLSMDPYDGYDPSVLSHVLEGHGDAVWGLAFSPTSQRLASCSADGTVRIWDPSSSSPACLCTFPTASEHGVPTSVAFTSTEPAHIVASFRSGDTVLYDMEVGSALLTLESRGSSGPTQINQVVSHPNQPLTITAHDDRGIRFLDNRTGKPVHSMVAHLDAVTCLAVDPNGAFLMSGSHDCSLRLWSLDNKTCVQEITAHRKKHEEAIHAVACHPSKALIASAGADALAKVFV
With B4, the binding entry with MST2 BioID bait was “binds”.

For the origin of these results see PMC9057599.
